At least one structure is not confirmed: it was looked up by name or label, or the drawing left a doubt.
Test system: blood LH levels
Assay: Blood LH level time course after intraventricular administration in freely moving Wistar rats
Type: in vivo, rat
Conditions: 5 nmol administration group, third ventricle, 0-60 min
Method: A guide cannula was implanted in adult male Wistar rats treated in the same manner as described in Example 1. The rats were allowed about one week for recovery from the surgery. Then, they received another surgery so that blood samples can be taken from them moving freely. Briefly, the guide cannula-implanted rat was anesthetized by intraperitoneal administration of […] pentobarbital and fixed on an anatomical pad in face-up position. Then, the left jugular vein was exposed. A polyethylene tube SP35 (inside dia. 0.5 mm, outside dia. 0.9 mm; Natsume Seisakusho) was cut to give an about 30 cm length, filled with 200 U/ml heparin-containing physiological saline, inserted into the jugular vein about 4.5 cm, and fixed. The other end of the tube was passed subcutaneously through dorsal skin and exposed from the neck (dorsal).
After one night from the surgery, 300 μl of blood was collected from each rat using a 1 ml injection syringe for tuberculin and a 25-gauge injection needle (both Terumo Corp.) prior to the administration of rat GALP (a peptide consisting of the amino acid sequence as shown in SEQ ID NO: 33). In order to prevent blood coagulation, 10 μl of 300 KIU/ml aprotinin solution containing 3 mg/ml EDTA was added in advance into the injection syringe. […] The LH levels in the plasma were measured by radioimmunoassay (Amersham).

## CC[C@H](C)[C@H](NC(=O)[C@H](C)NC(=O)[C@H](Cc1c[nH]cn1)NC(=O)[C@@H]1CCCN1C(=O)CNC(=O)[C@H](CC(C)C)NC(=O)[C@H](CC(C)C)NC(=O)[C@H](Cc1ccc(O)cc1)NC(=O)CNC(=O)[C@H](C)NC(=O)[C@H](CO)NC(=O)[C@H](CC(N)=O)NC(=O)[C@H](CC(C)C)NC(=O)[C@@H](NC(=O)[C@H](Cc1c[nH]c2ccccc12)NC(=O)CN)[C@@H](C)O)C(=O)N[C@@H](CC(=O)O)C(=O)N[C@@H](CC(N)=O)C(=O)N[C@@H](Cc1c[nH]cn1)C(=O)N[C@@H](CCCNC(=N)N)C(=O)N[C@@H](CO)C(=O)N[C@@H](Cc1ccccc1)C(=O)N[C@@H](CO)C(=O)N[C@@H](CC(=O)O)C(=O)N[C@@H](CCCCN)C(=O)N[C@@H](Cc1c[nH]cn1)C(=O)NCC(=O)N[C@@H](CC(C)C)C(=O)N[C@H](C(N)=O)[C@@H](C)O [SEQ ID NO: 61 Rat Galanin, rat galanin, reference compound]
  blood LH level compared with the control group: no change

Reference: US20040077531A1, “Use of galanin-like peptide” (priority 2001, published 2004)
